The text below walks through data of article doi:10.1101/2022.06.10.495687.

For at least one entry, the source does not settle the construct or the ends of the probe.

For data set [1], the system named is GhHSFA6B-D (Gossypium hirsutum). The data set is described as follows: competition with a labelled probe. The settings on record: 200x excess; protein translated in vitro.
Data set [2] concerns GhDREB2A-A (Gossypium hirsutum). In words: competition with a labelled probe. The settings on record: 200x excess; protein translated in vitro.
The subject of data set [3] is GhHSFA6B-D (Gossypium hirsutum). The data set is described as follows: EMSA. The settings on record: protein translated in vitro; label: IRD700. (In general: A gel shift assay detects complexes by their altered migration in electrophoresis.)
The test system of data set [4] is GhDREB2A-A (Gossypium hirsutum). In words: EMSA. The settings on record: protein translated in vitro; label: IRD700.

Regarding “GTCAATAGATCAAGATAAGTTGTTTCCAGAATATTCCCTATGTTGACTTC (double strand) [Mutated-IPS3 (SNP:T)]”, the binding result in data set [1] is given as “binds”.

Regarding “TCTCATGCAGCCAATGTCGTTGCTCCGCCACCGACTTAAATAATGGCACT (double strand) [ABP-DREB2A competitor (Competitor-3, GhABP-D)]”, the binding result in data set [2] was “binds”. Turning to “GTCAATAGATCAAGATAAGTTGTTTCCAGAATATTCCCCATGTTGACTTC (double strand) [IPS-HSF probe (Probe-4, reference C)]”, the binding result in data set [3] is “binds”. Regarding “TTTTGGGGTATTCTTGAAGCTTTCTGGAAAATTCAAGCTCGATTCATGT (double strand) [ABP-HSFA6B probe (Probe-2, site 2)]”, the binding result in data set [3] is reported as “binds”. In the case of “TCTCATGCAGCCAATGTTGTTGCTCCGCCACCGACTTAAATAATGGCATT (double strand) [ABP-DREB2A probe unlabeled (Probe-3 control)]”, the binding result in data set [2] is given as “binds”. “TCTCATGCAGCCAATGTTGTTGCTCCGCCACCGACTTAAATAATGGCATT (double strand) [ABP-DREB2A probe (Probe-3)]”: the binding result in data set [4] was “binds”. Turning to “TTTTGGATTATTCTTGAAGCTTTCTGGAAAATTCAAGCTTGGATTCATGT (double strand) [ABP-HSFA6B competitor (Competitor-2, GhABP-D)]”, in data set [1], the binding result is reported as “binds”.

Take “GTCAATAGATCAAGATAAGTTGTTTCCAGAATATTCCCCATGTTGACTTC (double strand) [IPS probe unlabeled (Probe-4 control, reference C)]”: the binding result in data set [1] is listed as “binds”. “TTTTGGGGTATTCTTGAAGCTTTCTGGAAAATTCAAGCTCGATTCATGT (double strand) [ABP-HSFA6B probe unlabeled (Probe-2 control)]”: the binding result in data set [1] was “binds”.
